Data published in patent publication US20120263730A1.
Results are given in words; binding and its absence hold for the method and conditions named. A result given as binding can be weak or reduced; the word gives no strength. For part of these data: Sequences can lack the tags named with a protein.

Columns and labels:
human Glypican-2 (human) [1] = target: T1, human Glypican-2 (human) (UniProt Q8N158); test: cell surface binding, AP fusion on transfected cells
T1 sequence (looked up): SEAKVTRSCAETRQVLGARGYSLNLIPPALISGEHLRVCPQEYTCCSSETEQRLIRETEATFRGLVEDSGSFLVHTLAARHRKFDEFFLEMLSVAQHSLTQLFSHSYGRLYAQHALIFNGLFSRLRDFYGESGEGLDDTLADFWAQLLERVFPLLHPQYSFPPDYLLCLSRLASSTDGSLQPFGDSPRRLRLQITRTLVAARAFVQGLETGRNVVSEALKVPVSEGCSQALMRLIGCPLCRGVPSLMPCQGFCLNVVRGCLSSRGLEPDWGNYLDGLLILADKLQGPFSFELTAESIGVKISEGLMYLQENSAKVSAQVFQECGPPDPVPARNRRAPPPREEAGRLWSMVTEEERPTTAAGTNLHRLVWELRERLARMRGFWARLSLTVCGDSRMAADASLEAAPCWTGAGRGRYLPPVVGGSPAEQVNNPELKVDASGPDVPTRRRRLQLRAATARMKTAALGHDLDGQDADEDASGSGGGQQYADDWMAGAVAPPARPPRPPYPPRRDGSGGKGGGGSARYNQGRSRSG

human Glypican-1 (human) [2] = target: T2, human Glypican-1 (human) (UniProt P35052); test: as above
T2 sequence (looked up): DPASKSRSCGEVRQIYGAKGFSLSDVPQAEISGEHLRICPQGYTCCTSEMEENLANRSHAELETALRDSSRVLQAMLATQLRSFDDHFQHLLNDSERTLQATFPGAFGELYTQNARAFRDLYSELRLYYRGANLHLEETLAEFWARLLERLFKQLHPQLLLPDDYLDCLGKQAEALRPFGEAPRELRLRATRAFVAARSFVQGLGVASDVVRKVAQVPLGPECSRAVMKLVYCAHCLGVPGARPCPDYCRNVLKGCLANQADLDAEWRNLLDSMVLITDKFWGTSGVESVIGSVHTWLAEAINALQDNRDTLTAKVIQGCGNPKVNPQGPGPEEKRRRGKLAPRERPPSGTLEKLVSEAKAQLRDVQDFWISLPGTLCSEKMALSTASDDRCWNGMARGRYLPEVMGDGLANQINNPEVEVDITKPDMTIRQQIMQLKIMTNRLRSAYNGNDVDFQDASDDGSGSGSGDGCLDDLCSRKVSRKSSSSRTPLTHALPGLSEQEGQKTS

human Glypican-5 (human) [3] = target: T3, human Glypican-5 (human) (UniProt P78333); test: as above
T3 sequence (looked up): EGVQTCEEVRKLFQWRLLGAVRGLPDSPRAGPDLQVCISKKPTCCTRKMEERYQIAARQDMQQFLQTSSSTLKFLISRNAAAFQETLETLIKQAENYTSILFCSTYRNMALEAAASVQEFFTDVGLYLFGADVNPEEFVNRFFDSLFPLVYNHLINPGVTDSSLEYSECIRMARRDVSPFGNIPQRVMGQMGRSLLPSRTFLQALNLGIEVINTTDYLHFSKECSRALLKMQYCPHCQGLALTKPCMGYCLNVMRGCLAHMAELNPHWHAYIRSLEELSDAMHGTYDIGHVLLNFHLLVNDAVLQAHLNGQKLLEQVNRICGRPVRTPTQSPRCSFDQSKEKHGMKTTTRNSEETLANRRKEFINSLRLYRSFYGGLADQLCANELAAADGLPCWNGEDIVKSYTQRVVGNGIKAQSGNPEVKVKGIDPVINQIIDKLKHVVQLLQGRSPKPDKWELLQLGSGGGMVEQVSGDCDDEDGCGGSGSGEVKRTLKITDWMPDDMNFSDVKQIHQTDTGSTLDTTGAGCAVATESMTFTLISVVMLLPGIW

human Glypican-6 (human) [4] = target: T4, human Glypican-6 (human) (UniProt Q9Y625); test: as above
T4 sequence (looked up): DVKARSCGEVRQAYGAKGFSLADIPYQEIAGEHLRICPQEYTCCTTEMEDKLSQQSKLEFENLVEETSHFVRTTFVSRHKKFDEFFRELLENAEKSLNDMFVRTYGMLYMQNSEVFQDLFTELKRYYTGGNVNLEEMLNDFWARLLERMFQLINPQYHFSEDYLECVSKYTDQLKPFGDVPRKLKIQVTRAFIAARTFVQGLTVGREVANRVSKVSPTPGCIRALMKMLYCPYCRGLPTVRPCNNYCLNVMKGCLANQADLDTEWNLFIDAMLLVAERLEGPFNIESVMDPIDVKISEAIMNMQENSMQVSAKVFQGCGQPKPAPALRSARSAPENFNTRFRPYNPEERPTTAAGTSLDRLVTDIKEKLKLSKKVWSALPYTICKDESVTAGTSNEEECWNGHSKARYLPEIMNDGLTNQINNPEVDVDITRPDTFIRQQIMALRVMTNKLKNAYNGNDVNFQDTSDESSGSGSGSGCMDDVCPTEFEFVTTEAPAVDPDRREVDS

human Glypican-4 (human) [5] = target: T5, human Glypican-4 (human) (UniProt O75487); test: as above
T5 sequence (looked up): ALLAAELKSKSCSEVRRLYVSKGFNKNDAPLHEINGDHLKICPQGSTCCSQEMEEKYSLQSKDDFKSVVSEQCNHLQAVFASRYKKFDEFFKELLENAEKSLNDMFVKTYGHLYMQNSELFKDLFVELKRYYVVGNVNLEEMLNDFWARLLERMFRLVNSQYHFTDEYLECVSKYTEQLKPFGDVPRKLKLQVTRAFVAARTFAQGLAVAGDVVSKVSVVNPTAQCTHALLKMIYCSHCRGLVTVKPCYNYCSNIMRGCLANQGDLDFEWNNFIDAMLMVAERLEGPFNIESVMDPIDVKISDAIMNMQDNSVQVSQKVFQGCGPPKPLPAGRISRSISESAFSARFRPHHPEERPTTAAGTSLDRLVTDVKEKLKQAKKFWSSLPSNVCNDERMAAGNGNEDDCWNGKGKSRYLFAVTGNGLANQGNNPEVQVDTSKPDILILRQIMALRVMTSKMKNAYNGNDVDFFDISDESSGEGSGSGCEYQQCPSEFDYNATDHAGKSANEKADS

human Glypican-2 (human) [6] = target: T1, human Glypican-2 (human); test: cell surface binding on transfected cells
human Glypican-1 (human) [7] = target: T2, human Glypican-1 (human); test: cell surface binding on transfected cells
human Glypican-5 (human) [8] = target: T3, human Glypican-5 (human); test: cell surface binding on transfected cells
human Glypican-6 (human) [9] = target: T4, human Glypican-6 (human); test: cell surface binding on transfected cells
human Glypican-4 (human) [10] = target: T5, human Glypican-4 (human); test: cell surface binding on transfected cells
[11] = target: T6, N-streptag-hSdc4ΔGAG (human Syndecan-4 with serine 63, 97, 95, 138 replaced by alanine) (human) (UniProt P31431); test: cell surface binding on transfected HEK293T cells
T6 sequence (chain, still incorporated 35S-sulfate and therefore still contained GAGs): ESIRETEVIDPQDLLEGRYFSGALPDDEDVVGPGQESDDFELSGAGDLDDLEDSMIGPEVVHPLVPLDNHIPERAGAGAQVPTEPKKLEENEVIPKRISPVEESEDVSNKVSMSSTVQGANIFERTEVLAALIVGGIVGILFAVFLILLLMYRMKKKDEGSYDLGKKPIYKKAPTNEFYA

mouse Syndecan-1 (mouse) [12] = target: T7, mouse Syndecan-1 (mouse) (UniProt P18828); test: cell surface binding, AP fusion on transfected HEK293T cells, AP staining
T7 sequence (glycosaminoglycan chains (sites not stated), looked up): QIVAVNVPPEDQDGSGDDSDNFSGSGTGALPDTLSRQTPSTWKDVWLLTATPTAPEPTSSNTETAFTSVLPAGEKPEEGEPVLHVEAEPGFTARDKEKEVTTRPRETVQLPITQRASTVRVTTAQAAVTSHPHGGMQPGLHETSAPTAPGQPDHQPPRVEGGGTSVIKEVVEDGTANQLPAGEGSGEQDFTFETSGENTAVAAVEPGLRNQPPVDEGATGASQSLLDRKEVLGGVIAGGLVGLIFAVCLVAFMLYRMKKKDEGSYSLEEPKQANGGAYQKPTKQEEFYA

mouse Syndecan-1 (mouse) [13] = target: T7, mouse Syndecan-1 (mouse); test: cell surface binding, AP fusion on transfected HEK293T cells

binding (human Glypican-2 (human) [1])	binding (human Glypican-1 (human) [2])	binding (human Glypican-5 (human) [3])	binding (human Glypican-6 (human) [4])	binding (human Glypican-4 (human) [5])	binding (human Glypican-2 (human) [6])	binding (human Glypican-1 (human) [7])	binding (human Glypican-5 (human) [8])	binding (human Glypican-6 (human) [9])	binding (human Glypican-4 (human) [10])	binding [11]	binding (mouse Syndecan-1 (mouse) [12])	binding (mouse Syndecan-1 (mouse) [13])	Substance
binds	binds	binds	binds	binds	binds	binds	binds	binds	binds	binds	binds	binds	hRspo3ΔC-AP (human Rspondin-3 aa 1-209 fused to alkaline phosphatase) (ligand)
											binds	binds	hRspo2ΔC-AP (human Rspondin-2 aa 1-206 fused to alkaline phosphatase) (ligand)
